# No constants are given. Whether binding was seen depends on the method and setting. For part of these data: Binding seen in cells or lysates may run through a third protein. Some binding calls cover weakened binding; strength is not graded here.
# Amino acid sequences for entries named in this document (tags omitted). A change or cut given only in a name is not applied to a line headed by its entry.
# UniProt P28340: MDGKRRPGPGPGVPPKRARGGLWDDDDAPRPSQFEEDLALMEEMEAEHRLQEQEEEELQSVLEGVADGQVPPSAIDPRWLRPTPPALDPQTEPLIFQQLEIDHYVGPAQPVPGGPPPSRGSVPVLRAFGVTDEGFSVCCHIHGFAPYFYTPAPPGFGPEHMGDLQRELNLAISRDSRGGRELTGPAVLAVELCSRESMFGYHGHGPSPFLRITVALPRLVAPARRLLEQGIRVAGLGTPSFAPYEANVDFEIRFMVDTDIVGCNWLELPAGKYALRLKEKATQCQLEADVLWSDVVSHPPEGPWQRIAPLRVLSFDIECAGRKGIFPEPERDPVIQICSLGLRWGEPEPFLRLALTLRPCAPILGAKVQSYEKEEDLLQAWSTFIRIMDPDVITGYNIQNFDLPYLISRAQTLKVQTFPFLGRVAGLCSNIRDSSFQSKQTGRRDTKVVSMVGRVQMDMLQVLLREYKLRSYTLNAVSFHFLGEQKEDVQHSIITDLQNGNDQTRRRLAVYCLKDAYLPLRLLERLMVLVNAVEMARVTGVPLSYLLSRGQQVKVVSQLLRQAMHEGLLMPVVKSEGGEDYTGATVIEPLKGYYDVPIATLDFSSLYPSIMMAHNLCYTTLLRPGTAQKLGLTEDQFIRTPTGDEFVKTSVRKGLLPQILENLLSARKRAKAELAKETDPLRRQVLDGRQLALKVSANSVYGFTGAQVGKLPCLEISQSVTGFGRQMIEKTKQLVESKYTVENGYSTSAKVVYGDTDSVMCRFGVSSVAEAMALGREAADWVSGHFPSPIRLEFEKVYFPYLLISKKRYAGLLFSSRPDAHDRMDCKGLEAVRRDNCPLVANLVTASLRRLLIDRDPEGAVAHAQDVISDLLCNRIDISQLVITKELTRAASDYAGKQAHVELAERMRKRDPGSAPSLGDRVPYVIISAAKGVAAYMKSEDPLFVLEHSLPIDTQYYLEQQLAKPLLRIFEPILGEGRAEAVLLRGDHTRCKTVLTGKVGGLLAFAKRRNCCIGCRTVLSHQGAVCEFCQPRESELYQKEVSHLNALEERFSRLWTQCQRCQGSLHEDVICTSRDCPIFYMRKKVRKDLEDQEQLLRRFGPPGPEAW
# UniProt P49005: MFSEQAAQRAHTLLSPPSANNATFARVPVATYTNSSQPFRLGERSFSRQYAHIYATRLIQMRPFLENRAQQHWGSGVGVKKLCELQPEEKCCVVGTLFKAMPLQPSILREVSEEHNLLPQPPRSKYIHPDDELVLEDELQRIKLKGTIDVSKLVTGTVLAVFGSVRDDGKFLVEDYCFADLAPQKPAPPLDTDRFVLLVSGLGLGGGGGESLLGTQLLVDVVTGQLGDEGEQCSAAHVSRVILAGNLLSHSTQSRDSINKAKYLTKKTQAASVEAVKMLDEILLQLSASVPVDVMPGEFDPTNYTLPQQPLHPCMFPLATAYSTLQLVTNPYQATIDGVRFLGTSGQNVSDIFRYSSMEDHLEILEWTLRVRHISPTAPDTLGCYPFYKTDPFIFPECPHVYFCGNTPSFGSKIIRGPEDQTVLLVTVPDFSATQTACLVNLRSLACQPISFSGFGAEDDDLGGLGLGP
# B1: GST-PDIP46 (DNA polymerase δ interacting protein 46), wild type, full length (natural protein, human, UniProt Q9BY77 1-421, looked up)
# chain: MADISLDELIRKRGAAAKGRLNARPGVGGVRSRVGIQQGLLSQSTRTATFQQRFDARQKIGLSDARLKLGVKDAREKLLQKDARFRIKGKVQDAREMLNSRKQQTTVPQKPRQVADAREKISLKRSSPAAFINPPIGTVTPALKLTKTIQVPQQKAMAPLHPHPAGMRINVVNNHQAKQNLYDLDEDDDGIASVPTKQMKFAASGGFLHHMAGLSSSKLSMSKALPLTKVVQNDAYTAPALPSSIRTKALTNMSRTLVNKEEPPKELPAAEPVLSPLEGTKMTVNNLHPRVTEEDIVELFCVCGALKRARLVHPGVAEVVFVKKDDAITAYKKYNNRCLDGQPMKCNLHMNGNVITSDQPILLRLSDSPSMKKESELPRRVNSASSSNPPAEVDPDTILKALFKSSGASVTTQPTEFKIKL
# notes: PDIP46 (SKAR, POLDIP3), human, full-length; Subcloned in pGEX-5X-3; The functional rows used untagged PDIP46 (his-Sumo fusion, tags removed by Sumo protease, Mono S), not this GST fusion; also called GST-p46; SKAR; source: E. coli BL21DE3 (pLysS), purified (glutathione beads)
# Tests used:
# [1] = target: T1, PDIP46, endogenous in cultured human cells (human (endogenous in HeLa, HEK 293, A549)) (UniProt Q9BY77); assay: co-IP; HeLa cell extracts immunoprecipitated with polyclonal antibodies against PDIP46, A/G agarose beads, washed with RIPA buffer; western blot for p50 and p125
# T1 sequence: B1 chain
# [2] = target: p125 subunit of Pol δ, endogenous in cultured human cells (human (endogenous in HeLa, HEK 293, A549)) (UniProt P28340); assay: co-IP; ChIP: cells cross-linked with 1% formaldehyde, chromatin immunoprecipitated with anti-p125 or control IgG (ChIP-IT Express Enzymatic Kit); western blot for PDIP46 and p125
# [3] = target: p125 subunit of Pol δ, endogenous in cultured human cells (human (endogenous in HeLa, HEK 293, A549)) (UniProt P28340); assay: native gel or EMSA; HEK 293 cell lysates on 5-15% nondenaturing gradient gels at 4°C run to limiting mobility (18 h); western blot for p125 and PDIP46
# [4] = target: p125 subunit of Pol δ, endogenous in cultured human cells (human (endogenous in HeLa, HEK 293, A549)) (UniProt P28340); assay: SEC; nuclear extracts of HEK 293 cells on a Superose 6 FPLC column; fractions western blotted for p125 and PDIP46
# [5] = target: p125 subunit of Pol δ, endogenous in cultured human cells (human (endogenous in HeLa, HEK 293, A549)) (UniProt P28340); assay: co-IP; immunoaffinity chromatography of HeLa cell lysates on immobilized p125 antibody; fractions blotted (Figure S1)
binding [1],binding [2],binding [3],binding [4],binding [5],Molecule
binds,,,,,"p125 subunit of Pol δ, endogenous in cultured human cells (from UniProt P28340 1-1107)"
binds,,,,,"p50 subunit of Pol δ, endogenous in HeLa cells (from UniProt P49005 1-469)"
,binds,binds,binds,binds,B1

# From paper PMC4868757, “PDIP46 (DNA polymerase δ interacting protein 46) is an activating factor for human DNA polymerase δ” (Oncotarget, 2016)
